From the supplement of paper PMC4604168 (melanoma cell lines)
The other results are listed elsewhere or left out. Single values are uncertain, as repeats are few or missing.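 Cells were imaged in 1,536-well plates, and nuclei stained with an antibody against cleaved PARP were counted against all DNA-stained nuclei to give the apoptosis fraction. Screening doses were chosen to leave most cells alive, and resting and induced cleaved-PARP levels differ strongly between cell lines.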

System: A101D
Assay: cleaved PARP positive nuclei fraction relative to DMSO control; melanoma cells; higher = more apoptosis
Details: library dose: low library concentration; 72 h

Compound | cleaved PARP positive nuclei fraction [%]
Cn1cc(C2=C(c3cn(C4CCN(Cc5ccccn5)CC4)c4ccccc34)C(=O)NC2=O)c2ccccc21 [Enzastaurin] + CN(c1ncccc1CNc1nc(Nc2ccc3c(c2)CC(=O)N3)ncc1C(F)(F)F)S(C)(=O)=O [PF562271] (first compound 0.8 µM, partner dose 0.08 µM) | 53.1
C[C@]12O[C@H](C[C@]1(O)CO)n1c3ccccc3c3c4c(c5c6ccccc6n2c5c31)CNC4=O [Lestaurtinib] + O=C(O)c1ccc2c(c1)nc(Nc1cccc(Cl)c1)c1ccncc12 [CX4945] (first compound 0.004 µM, partner dose 0.4 µM) | 99.1
CC(=O)c1c(C)c2cnc(Nc3ccc(N4CCNCC4)cn3)nc2n(C2CCCC2)c1=O [palbociclib] + C[As](C)SC[C@H](NC(=O)CC[C@H](N)C(=O)O)C(=O)NCC(=O)O [Darinaparsin] (first compound 0.04 µM, partner dose 0.4 µM) | 54.2
NC1(c2ccc(-c3nc4ccn5c(=O)[nH]nc5c4cc3-c3ccccc3)cc2)CCC1 + N.N.[Cl][Pt][Cl] [cisplatin] (first compound 0.4 µM, partner dose 1.6 µM) | 51.3
Cc1cc(Nc2cc(N3CCN(C)CC3)nc(Sc3ccc(NC(=O)C4CC4)cc3)n2)n[nH]1 [Tozasertib] + Cn1cc(C2=C(c3cn(C4CCN(Cc5ccccn5)CC4)c4ccccc34)C(=O)NC2=O)c2ccccc21 [Enzastaurin] (first compound 0.006 µM, partner dose 0.8 µM) | 87.1
CC(C)C[C@H](NC(=O)[C@H](Cc1ccccc1)NC(=O)c1cnccn1)B(O)O [Bortezomib] + N.N.[Cl][Pt][Cl] [cisplatin] (first compound 0.001 µM, partner dose 1.6 µM) | 1740
Nc1nc(F)nc2c1ncn2[C@@H]1O[C@H](CO)[C@@H](O)[C@@H]1O [fludarabine] + C[As](C)SC[C@H](NC(=O)CC[C@H](N)C(=O)O)C(=O)NCC(=O)O [Darinaparsin] (first compound 0.2 µM, partner dose 0.4 µM) | 201
Cn1cc(C2=C(c3cn(C4CCN(Cc5ccccn5)CC4)c4ccccc34)C(=O)NC2=O)c2ccccc21 [Enzastaurin] + CCN(CC)CCNC(=O)c1c(C)[nH]c(/C=C2\C(=O)Nc3ccc(F)cc32)c1C [sunitinib] (first compound 0.8 µM, partner dose 0.4 µM) | 87.7
C[C@]12O[C@H](C[C@]1(O)CO)n1c3ccccc3c3c4c(c5c6ccccc6n2c5c31)CNC4=O [Lestaurtinib] + Nc1cccc2c1CN(C1CCC(=O)NC1=O)C2=O [lenalidomide] (first compound 0.004 µM, partner dose 1 µM) | 40.6
N.N.[Cl][Pt][Cl] [cisplatin] + Cn1nnc2c(C(N)=O)ncn2c1=O [temozolomide] (first compound 1.6 µM, partner dose 2 µM) | 94.3
Cn1cc(C2=C(c3cn(C4CCN(Cc5ccccn5)CC4)c4ccccc34)C(=O)NC2=O)c2ccccc21 [Enzastaurin] + CNC(=O)c1cc(Oc2ccc(NC(=O)Nc3ccc(Cl)c(C(F)(F)F)c3)cc2)ccn1 [sorafenib] (first compound 0.8 µM, partner dose 0.4 µM) | 94.4
Cc1cn(-c2cc(NC(=O)c3ccc(C)c(Nc4nccc(-c5cccnc5)n4)c3)cc(C(F)(F)F)c2)cn1 [nilotinib] + C[As](C)SC[C@H](NC(=O)CC[C@H](N)C(=O)O)C(=O)NCC(=O)O [Darinaparsin] (first compound 0.2 µM, partner dose 0.4 µM) | 137
Cc1ccc(Nc2nccc(N(C)c3ccc4c(C)n(C)nc4c3)n2)cc1S(N)(=O)=O [Pazopanib] + Cn1cc(C2=C(c3cn(C4CCN(Cc5ccccn5)CC4)c4ccccc34)C(=O)NC2=O)c2ccccc21 [Enzastaurin] (first compound 0.4 µM, partner dose 0.8 µM) | 104
C[C@]12O[C@H](C[C@]1(O)CO)n1c3ccccc3c3c4c(c5c6ccccc6n2c5c31)CNC4=O [Lestaurtinib] + OCc1c[nH]c2ccccc12 [Indole-3-carbinol] (first compound 0.004 µM, partner dose 0.8 µM) | 88
Cn1cc(C2=C(c3cn(C4CCN(Cc5ccccn5)CC4)c4ccccc34)C(=O)NC2=O)c2ccccc21 [Enzastaurin] + C[C@]1(O)C[C@@H](c2nc(-c3ccc4ccc(-c5ccccc5)nc4c3)c3c(N)nccn32)C1 [OSI906] (first compound 0.8 µM, partner dose 0.4 µM) | 272
O=C(/C=C/c1cccnc1)NCCCCC1CCN(C(=O)c2ccccc2)CC1 + N.N.[Cl][Pt][Cl] [cisplatin] (first compound 0.01 µM, partner dose 1.6 µM) | 47
O=C(Nc1cc(C(F)(F)F)cc(C(F)(F)F)c1)c1cc(Cl)ccc1O + Cn1cc(C2=C(c3cn(C4CCN(Cc5ccccn5)CC4)c4ccccc34)C(=O)NC2=O)c2ccccc21 [Enzastaurin] (first compound 0.016 µM, partner dose 0.8 µM) | 251
C#Cc1cccc(Nc2ncnc3cc(OCCOC)c(OCCOC)cc23)c1 [erlotinib] + C[As](C)SC[C@H](NC(=O)CC[C@H](N)C(=O)O)C(=O)NCC(=O)O [Darinaparsin] (first compound 0.8 µM, partner dose 0.4 µM) | 190
Cn1cnc2c(F)c(Nc3ccc(Br)cc3Cl)c(C(=O)NOCCO)cc21 [selumetinib] + Cn1cc(C2=C(c3cn(C4CCN(Cc5ccccn5)CC4)c4ccccc34)C(=O)NC2=O)c2ccccc21 [Enzastaurin] (first compound 0.015 µM, partner dose 0.8 µM) | 51.3
N.N.[Cl][Pt][Cl] [cisplatin] + C[C@@H](Oc1cc(-c2cnn(C3CCNCC3)c2)cnc1N)c1c(Cl)ccc(F)c1Cl [Crizotinib] (first compound 1.6 µM, partner dose 0.2 µM) | 161

A second format for part of the listing above:
C#Cc1cccc(Nc2ncnc3cc(OCCOC)c(OCCOC)cc23)c1 [erlotinib] + C[As](C)SC[C@H](NC(=O)CC[C@H](N)C(=O)O)C(=O)NCC(=O)O [Darinaparsin] (first compound 0.8 µM, partner dose 0.4 µM)
  cleaved PARP positive nuclei fraction [%]: 190
Cn1cnc2c(F)c(Nc3ccc(Br)cc3Cl)c(C(=O)NOCCO)cc21 [selumetinib] + Cn1cc(C2=C(c3cn(C4CCN(Cc5ccccn5)CC4)c4ccccc34)C(=O)NC2=O)c2ccccc21 [Enzastaurin] (first compound 0.015 µM, partner dose 0.8 µM)
  cleaved PARP positive nuclei fraction [%]: 51.3
